Source: ChEMBL document CHEMBL1139131, “Lead optimization of 5,6-diarylpyridines as CB1 receptor inverse agonists” (Bioorg Med Chem Lett, 2007)

Experiment: in vivo
Settings: Sprague-Dawley, rat

N#Cc1cc(-c2ccc(Cl)cc2)c(-c2ccc(Cl)cc2Cl)nc1OCc1ccc(F)c(F)c1
Vd: 0.77 L/kg
